Experimental data published in patent US20080122428A1, “Optimized Determination of Voltage Changes Using a Voltage-Sensitive Dye” (Max-Planck-Gesellschaft zur Forderungder Wissenschaften e. …, priority 2003, published 2008).

How the values were obtained:
[1] = system: Retzius cells (leech neurons); test: Two-dimensional fluorescence spectra of excitation and emission in leech neurons at defined membrane voltages (voltage clamp); type: cell-based, Hirudo medicinalis; conditions: for effective displacement of an elementary charge along the membrane normal (ΔμEG/e0) cos θ / charge displacement ΔμEG cos θ along the membrane normal: ΔVM=100 mV, dM=4 nm; for charge displacement ΔμEG cos θ along the membrane normal: fit with seven parameters
Experimental: The voltage sensitivity of the anellated hemicyanines ANNINE-6 and ANNINE-5 and also of BNBIQ, di-4-ANEPBS and RH-421 was investigated. Two-dimensional fluorescence spectra of excitation and emission are measured in leech neurons at defined membrane voltages. The voltage induced changes of fluorescence are parametrized in terms of changes of spectral parameters. ANNINE dyes are far more voltage sensitive than the classical styryl dyes and their sensitivity can be assigned almost completely to an identical spectral shift of excitation and emission that is caused by a molecular Stark effect.
(§1) Neurons. Ganglia of the leech Hirudo medicinalis (Moser, Schorndorf, Germany) were dissected and pinned on a Sylgard coated dish in Leibowitz-15 medium (L-5520, Sigma, Deisenhofen) with 5 mg/ml glucose, 0.3 mg/ml glutamine and 3 μg/ml gentamycin sulfate (G-3632, Sigma). After opening the tissue capsules the ganglia were incubated in dispase/collagenase (Boehringer, Mannheim, 2 mg/ml L-15 medium) for 1 hour at room temperature. Retzius cells (soma diameter 60-90 μm) were dissociated by aspiration into a firepolished micropipette and washed with Leibowitz-15 medium. The cells were seeded on an uncoated glass cover slip in a silicone chamber (Flexiperm-mikro 12, Vivascience AG, Hannover, Germany) with Leibowitz-15 medium and 2.5% fetal bovine serum (10106, Gibco, Eggenstein) and kept for one or two days at 20° C.
Staining. The dyes were solubilized in Leibowitz-15 medium with sodium cholate (Sigma, St. Luise, USA). We used 4.3 mM RH-421 with 10 mM cholate, 4.3 mM di-4-ANEPBS with 10 mM cholate, 10 mM BNBIQ with 10 mM cholate, 1 mM ANNINE-5 with 23 mM cholate and 1 mM ANNINE-6 with 25 mM cholate. After centrifugation, the staining solutions were added to the culture chambers with the neurons at a volume ratio of 1:1000 30 min before patching. The solubility of the dyes in water decreases in the series RH-421, di4-ANEPBS, BNBIQ, ANNINE-5 and ANNINE-6. In correspondence, the fluorescence intensity of cells stained with RH-421 and di-4-ANEPBS dropped after exchanging the medium by a dye-free solution due to desorption from the cells, whereas the intensity with ANNINE-5 and ANNINE-6 remained constant for at least 1.5 h.
Electrophysiology. Patch pipettes with a tip diameter of 5-10 μm were made from micro haematocrite tubes (Assistent, Karl Hecht, Sondheim/Rhön, Germany) using an all-purpose puller (DMZ-Universal Puller, Zeitz-Instrumente, Augsburg, Germany). They were filled with 140 mM KCl, 1.5 mM MgCl2, 10 mM Hepes and 10 mM EGTA, pH 7.3. The resistance of the pipettes was around 0.4 MΩ. The pipettes with Ag/AgCl electrodes were connected to a single electrode patch-clamp amplifier (SEC-10L, npi, Tamm, Germany). The patching of Retzius cells lead to a seal resistance of about 500 MΩ. Whole cell contact was achieved by breaking the membrane by suction using a water-jet vacuum pump. The bath was held at ground potential with a Ag/AgCl electrode. We kept the cells at an intracellular voltage of VM=−40 mV. The fluorescence spectra were measured at a hyperpolarized voltage of VM=−70 mV and a depolarized voltage of about VM=10 mV.
Optical setup. The spectrometer is sketched in FIG. 2. It is built on the basis of an inverted microscope (Axiovert 35, Zeiss, Oberkochen, Germany) with a high numerical aperture oil immersion objective (Neofluar 100×/1.3 oil). The light of a 75 W Xenon short arc lamp (Ushio, Hyogo, Japan) is spectrally resolved (resolution 16 nm) by a grating monochromator (J&M, Aalen, Germany). It is fed into the microscope with an optical multimode fibre (diameter 1.2 mm) and collimating optics (J&M). Nerve cell are illuminated through a dichroic mirror (AHF Analysentechnik, Tübingen, Germany) with a splitting wavelength of 520 nm for RH-421, di-4-ANEPPS, BNBIQ and ANNINE-6 and of 460 nm for ANNINE-5. The illumination is controlled by a shutter and a field diaphragm. […]

[2] = system: Retzius cells (leech neurons); test: Fluorescence intensity of stained neurons after exchanging the medium by a dye-free solution (desorption); type: cell-based, Hirudo medicinalis; conditions: desorption from the cells
Experimental: as §1
Staining. The dyes were solubilized in Leibowitz-15 medium with sodium cholate (Sigma, St. Luise, USA). We used 4.3 mM RH-421 with 10 mM cholate, 4.3 mM di-4-ANEPBS with 10 mM cholate, 10 mM BNBIQ with 10 mM cholate, 1 mM ANNINE-5 with 23 mM cholate and 1 mM ANNINE-6 with 25 mM cholate. […] In correspondence, the fluorescence intensity of cells stained with RH-421 and di-4-ANEPBS dropped after exchanging the medium by a dye-free solution due to desorption from the cells, whereas the intensity with ANNINE-5 and ANNINE-6 remained constant for at least 1.5 h.

HEK293 cells = test: Voltage sensitivity in HEK293 cells by extracellular electric field, laser line scans with one- or two-photon excitation; type: cell-based
Experimental: HEK293 cells (DSMZ GmbH, Braunschweig, Germany) were cultured using standard methods on glass coverslips (diameter 24 mm, Assistent, Glaswarenfabrik Karl Hecht KG, Sondheim, Germany). The coverslips were coated with fibronectin (No. 68885, Boehringer-Mannheim, Germany) in PBS (140 mM NaCl, 2.7 mM KCl, 1.5 mM KH2PO4, 6.5 mM Na2HPO4×2H2O) by incubation for 45 min in a 10 μg/ml fibronectin solution and a single subsequent wash with PBS. The cells were plated at densities of 15000 cells per coverslip and were used for up to three days after plating, while the cell density was still low. All measurements were done in a Ringer solution containing (in mM) 135 NaCl, 5.4 KCl, 1.0 MgCl2, 1.8 CaCl2 and 5.0 Hepes, adjusted to pH 7.2 with NaOH.
ANNINE-6 (FIG. 19a) was dissolved in a solution of 20% Pluronic F-127 DMSO (P-3000, Molecular Probes, Eugene, Oreg.) at a concentration of 0.5 mg/ml and sonicated for 15 min. The glass coverslip with the HEK293 cells was taken out of the culture well, exposed to the staining solution (dye stock solution diluted 1:100 into Ringer) for 5 min and finally washed with pure Ringer solution.
To change the voltage across the cell membrane we applied an extracellular electric field. This method (Gross et al., 1986) has a somewhat reduced voltage calibration accuracy but is much simpler than whole-cell recordings, for example, permitting the transfer of the recording chamber between microscope setups thereby allowing the exploration of a wider parameter range. Our custom-made chamber (FIG. 19b) consists of a 2.6 mm wide, and 30 mm long slit in a 0.5 mm thick PMMA (Plexiglas) plate. Two chlorided silver wires (diameter 0.127 mm, Cat. No. 7860, A-M Systems, INC., Everett, Wash.) for the application of the electrical field were fixed to the long edges of the channel with two-component epoxy resin glue (plus sofortfest, UHU, Bühl, Germany). This chamber was sealed on the bottom with a clean coverslip (24 mm×50 mm) attached with silicone grease (Bayer-silicone, Bayer AG, Leverkusen, Germany). The coverslip with the stained HEK293 cells was dried around the edges to get a watertight seal with silicone grease and then mounted cells down on the top side of the chamber. Two openings allowed the continuous perfusion (about 2 ml/min) with physiological saline using a gravity-fed perfusion system.
The voltage stimuli were generated by an arbitrary waveform generator (model 395, wavetek, Ismaning, Germany) and amplified by a custom-built push-pull circuit (using two operational amplifiers, OPA547, Texas Instruments Inc., Texas, USA, FIG. 19c). To avoid electrolysis at the electrodes and ionophoresis of cell-surface components all applied voltage waveforms were purely AC. Short pulses were used to minimize heating (FIG. 19d). The application of the pulse protocol was synchronized to the start of line scan acquisition.
For one-photon excitation we used laser scanning microscopes (Zeiss LSM 510 NLO and Leica TCS SP2) with Ar-ion laser excitation (458 nm, 488 nm, or 514 nm). We used laser illumination instead of, for example, Xe arc-lamps because narrow spectral width and high intensities are needed to obtain sufficient excitation of the dye at the spectral edge. The excitation light at the Zeiss microscope was coupled in via the main dichroic beam splitters (HFT 458/514, reflecting the 458 nm and 514 nm laser lines or HFT KP 700/488, a combined 700 nm short pass and 488 nm reflector). The emitted light was filtered by a long-pass filter (LP560). The Leica microscope uses an acousto-optical main beam splitter and fluorescence was collected in the range of 520 nm to 800 nm. The maximal excitation intensities at the sample were for the Zeiss (Leica) microscope: 1.3 mW (1.5 mW) at 514 nm, 200 μW (250 μW) at 488 nm and 28 μW (35 μW) at 458 nm. The pinhole was completely opened up (8.5 airy units) to collect as much light as possible. […]

Row | SMILES | blue shift of emission relative to blue shift of excitation ([1]; neuron membrane, positive ΔVM) | effective displacement of an elementary charge along the membrane normal (ΔμEG/e0) cos θ [1] | charge displacement ΔμEG cos θ along the membrane normal [1] | fluorescence intensity of stained cells after exchanging the medium by a dye-free solution [2] | electrochromic shift of emission compared with excitation ([1]; neuron membrane, positive ΔVM) | number of photons to detect a voltage change (HEK293 cells; 458 nm, 1 mV) | number of photons to detect a voltage change (HEK293 cells; 458 nm, voltage change of 10 mV) | number of photons to detect a voltage change (HEK293 cells; 514 nm, 1 mV) | number of photons to detect a voltage change (HEK293 cells; 514 nm, 10 mV) | deviation of response from linearity (factor) (HEK293 cells; 514 nm, +180 mV) | deviation of response from linearity (factor) (HEK293 cells; 514 nm, −180 mV) | voltage resolution in single-trial measurements (HEK293 cells; one-photon, 1 ms temporal resolution) | rms resolution of individual voltage measurements (HEK293 cells; two-photon 1040 nm, 900 line scans)
1 | CCCCN(CCCC)c1ccc2cc(C=Cc3cc[n+](CCCCS(=O)(=O)[O-])cc3)ccc2c1 [di-4-ANEPBS, reference compound] | about 50% | 0.43 nm | 21 Debye | dropped |  |  |  |  |  |  |  |  | 
2 | CCCCCN(CCCCC)c1ccc(/C=C/C=C/c2cc[n+](CCCCS(=O)(=O)[O-])cc2)cc1 [RH-421, reference compound] |  | 0.24 nm | 12 Debye | dropped | red shift of emission |  |  |  |  |  |  |  | 
3 | CCCCN(CCCC)c1ccc2c(ccc3c2ccc2c4ccc5c[n+](CCCCS(=O)(=O)[O-])ccc5c4ccc32)c1 [ANNINE-6] |  | 0.81 nm | 39 Debye |  | almost identical to those of excitation | 350 000 photons | 3500 photons | 82000 photons | 820 photons | about 0.66 | ~1.5 | about 12 mV rms | about 25 mV
4 | CCCCN(CCCC)c1ccc2c(ccc3c2ccc2c4cc[n+](CCCCS(=O)(=O)[O-])cc4ccc23)c1 [ANNINE-5] |  | 0.65 nm | 31 Debye |  | almost identical to those of excitation |  |  |  |  |  |  |  | 
